# Measurements taken from PubChem BioAssay AID493014 (National Center for Advancing Translational Sciences (NCATS), 2011).
# The list shows a part of the results. The main result of the screen is listed elsewhere. These columns were measured beside it and carry no call. Most of these compounds were active or inconclusive in the main read-out, so they are no random draw. Words in brackets tell the shape of the fitted curve; partial curves, single points and poor fits give uncertain potencies.
# Assay: qHTS Assay to Find Inhibitors of Chronic Active B-Cell Receptor Signaling
# Details: ABC-DLBCL IkBa-CBG/CBR reporter, luminescence ratio (green luciferase fused to IkBa over red control in TMD8 lymphoma cells), 4 h
# Procedure, shortened: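 Compounds up to 46 uM were incubated four hours with TMD8 cells whose green CBG68 luciferase is fused to IkappaBalpha; red CBR luminescence normalised the signal, and concentration-effect curves were fitted to fusion, red and ratio data.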
# [1] = measured here: CBR red luminescence, cell number
# [2] = measured here: IkBa-CBG green luminescence
Compound,AC50 [1],AC50 [2]
CCOCCCNC(=O)c1ccc(N2CCOCC2)c(NS(=O)(=O)c2ccc(OC)cc2)c1,"4.47 µM [rising, partial curve, poor fit]",–
CS(=O)(=O)c1sc(C#N)c2c1C(=O)CC(c1ccccc1)C2 (centres undefined),"7.08 µM [falling, full curve]","11.2 µM [rising, partial curve, poor fit]"
Cc1nc(NC(=O)c2cc(-n3cnnc3)ccc2Cl)ccc1Br,–,"3.26 µM [rising, full curve, poor fit]"
COc1cccc(N(C(=O)c2ccco2)C(C(=O)NC2CCCC2)c2cccnc2)c1 (centres undefined),"15.8 µM [falling, single point]",–
CCN(CC)c1nc(C)c2c(c1C#N)CC(C)(C)OC2,"12.6 µM [rising, partial curve, poor fit]",–
Cc1ccc(C(=O)Nc2cccc3ccccc23)cc1,"1.26 µM [falling, full curve, poor fit]",–
NC(=O)[C@H]1CC2(CC(c3cccc(NC(=O)COc4ccc(Cl)cc4)c3)=NO2)CN1C(=O)c1ccccc1C(=O)c1ccccc1 (some centres undefined),"35.5 µM [falling, single point]",–
CCCc1ccc(OCc2ccc(C(=O)NN)o2)c(OC)c1,"3.98 µM [falling, partial curve, poor fit]",–
O=C(N/N=C/c1ccccc1)c1ccco1,"12.6 µM [falling, single point]",–
COc1cc(OC)nc(NC(=O)CSc2nc3ccccc3o2)n1,"2.31 µM [falling, partial curve]",–
Fc1ccccc1Cn1nnc2c(-n3ccnc3)ncnc21,"7.08 µM [falling, partial curve, poor fit]",–
O=c1[nH]c(=O)c2nnc(N/N=C/c3ccccc3F)nc2[nH]1,"14.1 µM [falling, single point]",–
Cc1ccc(NC2=CC(=O)C(=O)c3ccccc32)cc1,"5.17 µM [falling, full curve]","8.2 µM [rising, partial curve, poor fit]"
CCn1ccc(C(=O)N2CCN(c3ncccn3)CC2)n1,"0.112 µM [rising, full curve, poor fit]",–
O=C(CSc1ncnc2scc(-c3ccc(F)cc3)c12)c1ccc2c(c1)OCCO2,"6.51 µM [rising, full curve]",–
Cc1ccc2[nH]cc(CCCN3C(=O)c4ccccc4C3=O)c2c1,"14.6 µM [rising, partial curve, poor fit]",–
N/C(=N\OC(=O)Cc1ccccc1[N+](=O)[O-])c1ccccn1,"20 µM [falling, single point]",–
COCCCn1c(SCC(=O)NCc2ccccc2)nc2ccccc2c1=O,"0.366 µM [rising, full curve, poor fit]",–
CC(C)CC(=O)Nc1ncc([N+](=O)[O-])s1,"11.2 µM [falling, partial curve]",–
CC(NC(=O)C1CCN(S(=O)(=O)c2ccc(Br)s2)CC1)c1ccccc1 (centres undefined),"5.62 µM [rising, partial curve, poor fit]",–
Cc1cccc2cc(CN(Cc3ccco3)C(=O)NC3CCCCC3)c(=O)[nH]c12,"4.11 µM [falling, full curve, poor fit]",–

Compound,AC50 [1],AC50 [2]
Cc1cc(C(=O)OCC(=O)Nc2c(Cl)cccc2Cl)c(C)o1,"29.1 µM [rising, single point]","25.9 µM [falling, partial curve]"
CC1(C)Cc2c(sc(NC(=O)c3ccc4ncsc4c3)c2C(N)=O)C(C)(C)N1,"35.5 µM [falling, single point]",–
CCOC(=O)CSC1=NC(=O)/C(=C\c2ccc(OC(C)=O)cc2)S1,"11.2 µM [falling, single point]",–
O=C1C2CC=CCC2C(=O)N1c1ccc(Cc2ccncc2)cc1 (centres undefined),"5.8 µM [rising, full curve, poor fit]",–
COc1ccccc1-c1c(-c2ccc(O)cc2O)n[nH]c1C(F)(F)F,"39.8 µM [falling, partial curve, poor fit]",–
COc1ccc(N2CCN(C(=O)COC(=O)c3ccc(OC(F)F)cc3)CC2)cc1,"23.1 µM [rising, single point]","29.1 µM [falling, partial curve, poor fit]"
N#Cc1cc([N+](=O)[O-])ccc1NC(=O)CSc1n[nH]c(=O)n1C1CC1,–,"20.6 µM [falling, single point]"
CSc1nc2oc3c(c2c2nncn12)CC(C)(C)SC3,"5.01 µM [rising, single point]",–
COc1ccc(C(=O)Nc2ccc3c(c2)C(=O)N(C)C3=O)cc1OC,"2.51 µM [falling, partial curve, poor fit]",–
O=C(Cn1cnnn1)Nc1ccccc1Cc1ccccc1,"35.5 µM [rising, partial curve, poor fit]",–
COc1ccc(NS(=O)(=O)c2cc(NC(=O)CC3CCCC3)ccc2N2CCOCC2)cc1,"6.31 µM [rising, single point]",–
O=C(CSc1nnc(-c2cccnc2)n1Cc1ccco1)c1ccccc1,"1.58 µM [rising, full curve, poor fit]",–
COCc1cc(=O)[nH]c(Nc2nc3ccc(C)cc3o2)n1,"1.84 µM [falling, partial curve, poor fit]","16.4 µM [falling, single point]"
COCC1CCN(Cc2cn[nH]c2-c2cc(OC)c(OC)c(OC)c2)CC1,"12.6 µM [falling, single point]",–
CC(C)C1C(c2ccccc2)NC(c2ccccc2)CC1(O)c1ccc(F)cc1 (centres undefined),"35.5 µM [falling, single point]",–
CCCC(=O)OCC(=O)Nc1ccc2[nH]c(=O)[nH]c2c1,"6.31 µM [falling, single point]",–
COc1cccc(Cn2c(NCC(C)C)nc3c2c(=O)n(C)c(=O)n3C)c1,"18.4 µM [falling, partial curve, poor fit]",–
NC(=O)c1ccsc1NC(=O)COC(=O)c1nc(Cl)ccc1Cl,"23.1 µM [falling, single point]",–
CNC[C@H](CC1CCCCC1)NC[C@H](NCCC1CCCC1)[C@H](C)O,"11.2 µM [falling, partial curve, poor fit]",–
CCc1nnc(NC(=O)c2nc(S(=O)(=O)Cc3ccccc3)ncc2Cl)s1,"35.5 µM [falling, single point]","15.8 µM [rising, single point]"
CCN1C(=O)/C(=C\c2ccc(-c3ccc([N+](=O)[O-])cc3OC)o2)SC1=Nc1cccc(C(=O)O)c1,"3.16 µM [falling, single point]",–

Compound,AC50 [1],AC50 [2]
O=C(N/N=C/c1cc2c(cc1Cl)OCO2)c1ccc2c(c1)OCCO2,"8.91 µM [falling, partial curve, poor fit]",–
CN1c2ccsc2C(O)=C(C(=S)Nc2ccc(F)c(Cl)c2)S1(=O)=O,"29.1 µM [falling, single point]",–
N#C/C(=N\Nc1ccc(F)cc1)C(=O)C1CC1,"0.891 µM [rising, full curve, poor fit]",–
COc1cccc(NC(=O)CSc2nc3c(sc4ccccc43)c(=O)n2CCN(C)C)c1,"2.24 µM [falling, partial curve, poor fit]",–
COc1ccc(-n2cc(CNCCc3cnc[nH]3)c(-c3cccc(F)c3)n2)cc1,"35.5 µM [falling, single point]",–
COc1cc(C(=O)N[C@H](C(=O)OCC(=O)NC2CCCCCC2)C(C)C)cc(OC)c1OC,"3.66 µM [rising, partial curve, poor fit]","4.61 µM [falling, single point]"
CCCCCCCOC(=O)C[N+](C)(C)CCOC1CC2CCC1(C)C2(C)C (centres undefined),"29.1 µM [falling, single point]",–
CCCCN(CCCC)c1nc(OC)nc(-n2nnc(C(C)=O)c2C)n1,"15.8 µM [falling, partial curve]",–
Cc1ccc(-n2nnnc2SCC(=O)c2ccc3c(c2)NC(=O)CO3)c(C)c1,"0.116 µM [rising, full curve, poor fit]",–
C=CCn1c(C)cc(C(=O)CSc2nnc(NCc3ccccc3)s2)c1C,"17.8 µM [rising, single point]","17.8 µM [falling, partial curve, poor fit]"
CCN(Cc1ccccc1)C(=O)Cn1c(=O)oc2ccccc21,"6.31 µM [rising, single point]",–
CC(C)C(=O)Nc1nc2c(c(=O)[nH]1)CCCC2,"10 µM [falling, partial curve]",–
CCOc1ccccc1C(=O)OCC(=O)Nc1cc(Cl)ccc1Oc1ccccc1,"8.2 µM [falling, partial curve, poor fit]",–
COc1cccc2c1O/C(=N\O)C(C(=O)Nc1cccc(Br)c1)C2 (centres undefined),"14.1 µM [falling, single point]",–
Nc1nc(O)c(CC(=O)O)s1,"35.5 µM [rising, single point]",–
O=C(Cc1ccccc1F)c1ccc(O)cc1O,"22.4 µM [rising, partial curve, poor fit]",–
O=C(CCOc1ccccc1)Nc1ccc(Br)cc1,"2 µM [rising, full curve]",–
Cc1ccn2cc(-c3cccc([N+](=O)[O-])c3)nc2c1,"17.8 µM [falling, single point]",–
COc1cc(/C=N/NC(=O)Nc2ccccc2)ccc1OC(C)=O,–,"23.1 µM [falling, single point]"

# As a short view, 5 of the compounds above.
Compound,AC50 [1],AC50 [2]
CS(=O)(=O)c1sc(C#N)c2c1C(=O)CC(c1ccccc1)C2 (centres undefined),"7.08 µM [falling, full curve]","11.2 µM [rising, partial curve, poor fit]"
Cc1nc(NC(=O)c2cc(-n3cnnc3)ccc2Cl)ccc1Br,–,"3.26 µM [rising, full curve, poor fit]"
COc1cccc(N(C(=O)c2ccco2)C(C(=O)NC2CCCC2)c2cccnc2)c1 (centres undefined),"15.8 µM [falling, single point]",–
CCN(CC)c1nc(C)c2c(c1C#N)CC(C)(C)OC2,"12.6 µM [rising, partial curve, poor fit]",–
Cc1ccc(C(=O)Nc2cccc3ccccc23)cc1,"1.26 µM [falling, full curve, poor fit]",–
